# Experimental data taken from publication PMC11841255.
# Sequences of proteins named here, by UniProt entry; tags and fusion partners are left off.
# UniProt Q13263: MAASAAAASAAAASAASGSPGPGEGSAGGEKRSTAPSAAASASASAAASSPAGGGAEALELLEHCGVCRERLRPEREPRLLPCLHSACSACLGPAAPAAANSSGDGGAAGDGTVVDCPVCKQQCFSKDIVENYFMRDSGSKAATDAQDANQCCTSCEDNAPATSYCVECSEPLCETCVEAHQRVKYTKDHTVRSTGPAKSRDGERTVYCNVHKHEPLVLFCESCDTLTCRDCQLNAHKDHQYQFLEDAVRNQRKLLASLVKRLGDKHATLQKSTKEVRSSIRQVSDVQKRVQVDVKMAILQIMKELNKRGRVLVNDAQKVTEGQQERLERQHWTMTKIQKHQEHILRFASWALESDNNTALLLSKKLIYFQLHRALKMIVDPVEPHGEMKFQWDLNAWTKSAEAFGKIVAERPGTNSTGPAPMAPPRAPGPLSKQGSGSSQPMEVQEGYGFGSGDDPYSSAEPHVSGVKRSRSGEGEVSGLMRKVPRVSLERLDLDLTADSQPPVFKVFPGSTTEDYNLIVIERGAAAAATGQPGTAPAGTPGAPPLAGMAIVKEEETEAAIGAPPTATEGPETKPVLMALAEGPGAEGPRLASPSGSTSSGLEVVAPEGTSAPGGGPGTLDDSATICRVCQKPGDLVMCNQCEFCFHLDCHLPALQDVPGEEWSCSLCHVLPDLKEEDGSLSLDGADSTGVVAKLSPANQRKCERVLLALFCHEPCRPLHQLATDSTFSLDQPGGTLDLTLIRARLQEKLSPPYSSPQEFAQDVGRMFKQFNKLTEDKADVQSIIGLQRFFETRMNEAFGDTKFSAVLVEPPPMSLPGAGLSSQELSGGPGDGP
# No constants are given. Whether binding was seen depends on the method and setting. In cells and extracts the contact can be indirect. Some entries that bind do so weakly or less than the wild type. For some assays here: Tags and fused reporters may be left off the sequences shown.
# Experiments:
# GFP-CDCA3 = biological target: T1, GFP-CDCA3 (UniProt Q99618); test: co-IP; exogenous, tagged plasmids co-transfected in 293T cells; lysate incubated with primary antibody at 4 °C for 12 h, Protein A/G magnetic beads 1 h at 4 °C, five washes, WB; in one panel GFP-CDCA3 co-transfected with HA-MYC and Flag-TRIM28 (interaction enhanced)
# T1 sequence: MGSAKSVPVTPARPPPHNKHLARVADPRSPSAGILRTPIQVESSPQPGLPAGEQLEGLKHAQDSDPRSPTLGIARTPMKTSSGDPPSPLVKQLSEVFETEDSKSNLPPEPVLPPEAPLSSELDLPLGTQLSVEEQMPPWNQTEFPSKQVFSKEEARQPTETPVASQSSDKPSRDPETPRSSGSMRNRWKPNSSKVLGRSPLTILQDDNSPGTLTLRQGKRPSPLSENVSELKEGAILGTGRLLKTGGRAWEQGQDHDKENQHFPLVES
# [1] = biological target: T2, Cell Division Cycle Associated-3 (CDCA3), endogenous (human (endogenous in UM-UC3 and T24)) (UniProt Q99618); test: co-IP; endogenous proteins; lysate of UM-UC3 or T24 BLCA cells incubated with primary antibody at 4 °C for 12 h, Protein A/G magnetic beads 1 h at 4 °C, five washes, WB
# T2 sequence: T1 sequence
binding (GFP-CDCA3),binding [1],Substance
binds,,Flag-TRIM28 (from UniProt Q13263 1-835)
,binds,"Tripartite Motif Containing 28 (TRIM28), endogenous (from UniProt Q13263 1-835)"
